Source: US20100273769A1, “COMPOSITION AND METHOD FOR THE TREATMENT OF PARKINSON'S DISEASE” (priority 2009, published 2010)
For at least one compound, name, drawing or mass did not settle the structure.

Legend:
PKA = test: Kinase specificity, PKA; type: biochemical; conditions: 100 μM ATP
[1] = tested on: R1441C LRRK2 transgenic C. elegans; test: Food-sensing (slowing) response in LRRK2 transgenic C. elegans; type: in vivo; conditions: increasing concentrations during development to adult stage day 4, FIG. 6
Protocol: Dopaminergic neurons in C. elegans are involved in food sensing behavior such that in the absence of food worms move more rapidly, as assessed by determining their bending frequency on an agar plate not supplied with food. In an established assay the animals are then exposed to food, and the difference in motility is recorded in the form of bending frequency [Sawin et al., Neuron 26, 619-631 (2000)]. […] In approximate synchrony with the dopaminergic neurodegeneration this slowing response is essentially eliminated after 4 days. […] The slowing response can be reconstituted to a substantial degree by supplementation with dopamine, confirming that the phenotype is due to loss of dopaminergic input (FIG. 5).
The clear-cut functional phenotype of this model can be used to determine the efficacy of LRRK2 kinase inhibitors and the accurate determination of their potency in a biological context. […] The potency is expressed as the half-maximal restoration of the slowing response. […]
The functional consequence of dopaminergic neurodegeneration was assayed using the food-sensing response resulting in a slowing of motility after food exposure as assessed by the frequency of body bending within 20 second intervals in groups of 10 animals [Sawin et al., Neuron 26, 619-631 (2000)]. […]

[2] = tested on: R1441G LRRK2 transgenic mouse; test: Cylinder test (rearing) in R1441G LRRK2 transgenic mice; type: in vivo; conditions: oral, 2.5 to 10 mg/kg twice daily from 6 months of age, after 3-4 months of dosing, vs vehicle
PKC = test: Kinase specificity, PKC; type: biochemical; conditions: 100 μM ATP

What does the source list for `CNC(=O)[C@@]1(N)CC2OC1(C)n1c3ccccc3c3c4c(c5c6ccccc6n2c5c31)C(=O)NC4` (stereo partly drawn) [Compound 3]?
IC50 (PKA): 0.11 µM; Loss of the food-sensing response in the R1441C LRRK2 mutant [1]: Prevention of the loss of the food-sensing response; Functional decline (rearing in cylinder test) [2]: retard this decline; IC50 (PKC): 0.51 µM

How did the IC50 (PKA) turn out when `COC(=O)[C@@]1(N)CC2OC1(C)n1c3ccccc3c3c4c(c5c6ccccc6n2c5c31)C(=O)NC4` (stereo partly drawn) [Compound 5] was run?
Its IC50 is 14 µM.

And the IC50 (PKC)?
The IC50 was 6.5 µM.
